Substitutions are numbered along the chain they refer to. No constants are given. Whether binding was seen depends on the method and setting. Binding seen in cells or lysates may run through a third protein. Some results given as binding are weak or reduced against the parent protein; the word gives no strength. Sequences can lack the tags named with a protein.
Legend:
[1] = biological target: T1, Flag-tagged human NAB1 K480R mutant (human) (UniProt Q13506); test: co-IP; Flag-NAB1 (WT or K480R) and HA-HDAC2 co-transfected in HEK293T cells; IP with anti-Flag M2 beads; Western blot with anti-Flag and anti-HA
T1 sequence: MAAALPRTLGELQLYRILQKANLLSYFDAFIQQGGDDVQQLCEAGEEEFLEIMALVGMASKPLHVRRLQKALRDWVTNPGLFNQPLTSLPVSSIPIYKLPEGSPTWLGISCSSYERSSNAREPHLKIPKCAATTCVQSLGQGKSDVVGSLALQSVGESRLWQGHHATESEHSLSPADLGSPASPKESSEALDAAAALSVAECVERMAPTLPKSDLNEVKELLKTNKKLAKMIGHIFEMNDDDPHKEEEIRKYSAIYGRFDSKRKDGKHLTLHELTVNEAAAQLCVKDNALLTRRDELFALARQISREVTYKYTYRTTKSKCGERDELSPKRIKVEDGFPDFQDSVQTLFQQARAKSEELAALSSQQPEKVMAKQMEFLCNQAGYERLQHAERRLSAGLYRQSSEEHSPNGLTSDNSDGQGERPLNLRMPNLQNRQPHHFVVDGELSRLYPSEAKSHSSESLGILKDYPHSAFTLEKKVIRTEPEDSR

Chains of the proteins cited; added tags and fusions are not shown.
UniProt Q92769: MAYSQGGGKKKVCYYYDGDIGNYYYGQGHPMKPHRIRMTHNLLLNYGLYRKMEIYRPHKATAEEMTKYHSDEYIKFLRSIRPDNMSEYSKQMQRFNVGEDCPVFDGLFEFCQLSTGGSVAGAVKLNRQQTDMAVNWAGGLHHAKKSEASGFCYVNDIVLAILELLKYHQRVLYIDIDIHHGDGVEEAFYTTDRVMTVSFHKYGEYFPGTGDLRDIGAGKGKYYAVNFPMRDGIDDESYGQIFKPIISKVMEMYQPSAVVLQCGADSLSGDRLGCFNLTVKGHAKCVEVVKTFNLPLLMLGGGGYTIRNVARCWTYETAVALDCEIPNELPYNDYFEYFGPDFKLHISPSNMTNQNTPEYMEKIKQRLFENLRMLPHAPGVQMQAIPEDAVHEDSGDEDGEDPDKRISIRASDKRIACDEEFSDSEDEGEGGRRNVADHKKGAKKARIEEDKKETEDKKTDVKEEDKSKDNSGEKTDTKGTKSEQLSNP

[2] = biological target: T2, Flag-tagged human NAB1 (NGFI-A binding protein 1), wild type (human) (UniProt Q13506); test: as above
T2 sequence: T1 sequence with R480K

HA-HDAC2 (from UniProt Q92769 1-488)
binding [1]: binds
binding [2]: binds
